PubChem BioAssay AID1224830 – NIAID, 2016

- Aim: 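Genes whose knock-down alters the TNF-alpha reporter response to LPS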 (primary screen)
- System: human THP-1 monocytic leukaemia cells, TNF dual-luciferase reporter clone, PMA-differentiated to macrophage-like cells
- Reagent: siRNA pool against human genes, 50 nM
- Time to read-out: LPS for 4 h, given about 3 days after siRNA transfection
- Treatment: bacterial LPS (TLR4 ligand), 10 ng/ml
- Measurement: 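Ratio of firefly to renilla light, scaled to the plate median and expressed as a robust z-score per replicate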
- Scale: TNF reporter robust z-score: higher = stronger TNF reporter response to LPS
- Active means: 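Each well counts as active if its z-score is over 2.8 or under -1.5; controls are left without a call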
Here is one part, drawn at random, of about 18,000 deposited reagents. About 2,900 of all reagents (16%) were called active. 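Calls are made per well; low scores hint the gene aids the LPS response, high scores that it dampens it.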 Repeated entries: four replicate wells of each siRNA pool.

no.	gene symbol	TNF reporter robust z-score	activity call
1	MMP10	0.46	inactive
2	MMP10	0.56	inactive
3	MMP10	-0.99	inactive
4	MMP10	-0.32	inactive
5	SLC22A11	-0.83	inactive
6	SLC22A11	-0.94	inactive
7	SLC22A11	0.72	inactive
8	SLC22A11	-0.71	inactive
9	MTG2	-0.71	inactive
10	MTG2	-0.27	inactive
11	MTG2	0.18	inactive
12	ANGEL2	0.18	inactive
13	ANGEL2	-0.04	inactive
14	ANGEL2	0.61	inactive
15	ANGEL2	1.45	inactive
16	FANCM	2.32	inactive
17	FANCM	0.44	inactive
18	FANCM	1.86	inactive
19	FANCM	2.31	inactive
20	TTC9B	0.15	inactive
21	TTC9B	-0.33	inactive
22	TTC9B	-0.14	inactive
23	TTC9B	0.27	inactive

Quoted from above for reference:
no.	gene symbol	TNF reporter robust z-score	activity call
12	ANGEL2	0.18	inactive
13	ANGEL2	-0.04	inactive
14	ANGEL2	0.61	inactive
15	ANGEL2	1.45	inactive
16	FANCM	2.32	inactive
17	FANCM	0.44	inactive
18	FANCM	1.86	inactive

Further entries follow:
no.	gene symbol	TNF reporter robust z-score	activity call
24	CSNK1G2-AS1	0.56	inactive
25	CSNK1G2-AS1	1.24	inactive
26	CSNK1G2-AS1	1.01	inactive
27	CSNK1G2-AS1	1.2	inactive
28	GALNT15	1.45	inactive
29	GALNT15	0.85	inactive
30	GALNT15	2.02	inactive
31	GALNT15	1.49	inactive
32	HLA-DRB5	0	inactive
33	HLA-DRB5	-0.27	inactive
34	HLA-DRB5	-0.39	inactive
35	HLA-DRB5	-0.04	inactive
36	COLQ	0.67	inactive
37	COLQ	0.89	inactive
38	COLQ	-0.58	inactive
39	COLQ	1.64	inactive
40	ZFAND6	0.03	inactive
41	ZFAND6	-0.04	inactive
42	ZFAND6	-0.6	inactive
43	ZFAND6	1.39	inactive
44	PLA2R1	-1.08	inactive
45	PLA2R1	-0.64	inactive
46	PLA2R1	-0.89	inactive
47	PLA2R1	-0.35	inactive
